Values from PubChem BioAssay AID504786 (Drosophila RNAi Screening Center, 2011).
Test: 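Knock-downs reducing HIF reporter induction by the iron chelator DFO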 (primary screen). Cells: Drosophila S2 cells with a stable HIF luciferase reporter. Knock-down reagent: long dsRNA against Drosophila genes, about 0.2 µg dsRNA per well of a 384-well plate. Duration: three days of knock-down, then 20 h of DFO before reading. Treatment: desferrioxamine (DFO) at 100 µM, an iron chelator that mimics hypoxia, for 20 h. Read-out: 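HIF reporter luminescence in cells given 100 µM DFO for 20 h, using the mouse ldh-a hypoxia-response element, scored as per-plate z-scores; higher means greater loss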. Scale: z-score: higher = stronger loss of HIF reporter signal.
The deposit covers about 21,000 reagents; this is an unselected part of those that have a named target and a result. 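Primary screen; positive scores mean lost reporter signal, so the sign may be inverted from the usual convention.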 Further read-outs or replicates are left out here.

| Gene | DRSC id | z-score, replicate 1 |
| --- | --- | --- |
| CG2938 | DRSC18243 | -0.2 |
| CG11686 | DRSC14350 | -0.3 |
| CG5515 | DRSC15825 | -0.2 |
| CG33060 | DRSC09939 | 0 |
| CG14708 | DRSC14930 | -0.3 |
| udt | DRSC14214 | -0.2 |
| CG4953 | DRSC02792 | -0.2 |
| CG11409 | DRSC18579 | 0.1 |
| RPA2 | DRSC03184 | -0.3 |
| Gen | DRSC09679 | -0.3 |
| CG10340 | DRSC14232 | -0.3 |
| Setx | DRSC10859 | 0.1 |
| qvr | DRSC05280 | -0.1 |
| mRNA-cap | DRSC19789 | 3.2 |
| Tmep | DRSC08215 | -0.2 |
| CG14562 | DRSC11723 | -0.3 |
| CG15042 | DRSC19618 | -0.2 |
| sip2 | DRSC03154 | -0.2 |
| CG1701 | DRSC06641 | -0.2 |
| h-cup | DRSC15973 | -0.1 |
| CG31974 | DRSC00522 | -0.2 |
| CG5098 | DRSC06915 | -0.1 |
| CG15629 | DRSC00464 | -0.3 |
| CG33285 | DRSC11463 | -0.3 |
| CG7149 | DRSC03016 | -0.2 |
| CG11584 | DRSC19408 | -0.3 |
| Tssk | DRSC14784 | -1 |
| Wwox | DRSC03030 | -0.4 |
| CG9312 | DRSC16471 | -0.3 |
| dpr14 | DRSC17767 | -0.3 |
| colt | DRSC00808 | -0.4 |
| elg1 | DRSC10229 | -0.3 |
| CG4116 | DRSC18348 | -0.3 |
| Cpr47Ec | DRSC07332 | -0.2 |
| sli | DRSC07684 | -0.1 |
| CG9395 | DRSC03218 | -0.3 |
| kairos | DRSC19972 | -0.4 |
| CG15912 | DRSC18105 | -0.3 |
| CG3517 | DRSC15492 | -0.7 |
| saturn | DRSC09303 | -0.1 |
| corn | DRSC11021 | -0.3 |
| Rala | DRSC18703 | -0.2 |
| CG11581 | DRSC19407 | -0.2 |
| Iru | DRSC14457 | -0.4 |
| HUWE1 | DRSC20089 | -0.4 |
| spirit | DRSC18202 | -0.3 |
| CG15715 | DRSC10216 | 0 |
| CG32651 | DRSC18941 | -0.2 |
| Archease | DRSC16025 | 0 |
| glec | DRSC16958 | -0.2 |
| CG13455 | DRSC10002 | -0.2 |
| CG13250 | DRSC11698 | -0.2 |
| put | DRSC17039 | -0.2 |
| CG5342 | DRSC15776 | -0.3 |
| CdGAPr | DRSC03289 | -0.4 |
| Or67d | DRSC10158 | 0.5 |

8 of these entries, reformatted:
{"Gene": "CG5098", "DRSC id": "DRSC06915", "z-score, replicate 1": -0.1}
{"Gene": "CG15629", "DRSC id": "DRSC00464", "z-score, replicate 1": -0.3}
{"Gene": "CG33285", "DRSC id": "DRSC11463", "z-score, replicate 1": -0.3}
{"Gene": "CG7149", "DRSC id": "DRSC03016", "z-score, replicate 1": -0.2}
{"Gene": "CG11584", "DRSC id": "DRSC19408", "z-score, replicate 1": -0.3}
{"Gene": "Tssk", "DRSC id": "DRSC14784", "z-score, replicate 1": -1}
{"Gene": "Wwox", "DRSC id": "DRSC03030", "z-score, replicate 1": -0.4}
{"Gene": "CG9312", "DRSC id": "DRSC16471", "z-score, replicate 1": -0.3}
